Results from the supplement of paper PMC10735217.
Structures can show the parent of a compound that is named as a salt. The list shows a part of the results. Single values are uncertain here, since repeats match poorly.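 In a drug-repurposing library screen, luminescence reads luciferase driven by eight TEAD-binding elements, stably integrated into human kidney-derived cells. Compounds scoring over five robust Z scores above the plate mean are called hits.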

Tested on: HEK293A TEAD-LUC reporter
Test: TEAD-luciferase reporter activity (YAP activation), robust Z score vs plate; higher = stronger YAP/TEAD activation
Conditions: 24 h

| SMILES | TEAD-luciferase reporter activity (compound concentration: 200 nM) | TEAD-luciferase reporter activity (compound concentration: 2 uM) | TEAD-luciferase reporter activity (compound concentration: 10 uM) |
| --- | --- | --- | --- |
| CN1CCCC(CC2c3ccccc3Sc3ccccc32)C1 (centres undefined) [Metixene hydrochloride] | inactive: -2.29 | inactive: 0.151 | inactive: -0.697 |
| CC1(C)CSSC[C@@H](C(=O)O)NC1=O [Limazocic] | inactive: 0.135 | inactive: -1.86 | inactive: 0.575 |
| O=C(/C=C/c1ccc([N+](=O)[O-])cc1)NC[C@H]1CN(c2ccc(N3CCOCC3)c(F)c2)C(=O)O1 | inactive: 0.403 | inactive: -1.7 | inactive: 0.82 |
| COc1ccc2c(c1)c(CC(=O)OCC(=O)O)c(C)n2C(=O)c1ccc(Cl)cc1 [acemetacin] | inactive: -0.777 | inactive: 1.23 | inactive: 1.3 |
| N#CC(C#N)=C1NCCN1CCNCc1ccc(CN2CCCCC2)o1 | inactive: -0.423 | inactive: 2.1 | inactive: 2.54 |
| Cc1ccc(C2Oc3ccccc3C(=O)C2(C)O)cc1 (centres undefined) | inactive: -1.55 | inactive: -0.124 | inactive: 0.676 |
| Cc1ccnc(N2CCN(CCc3c(C)n4c5c(cc(CC(C)C)cc35)CCC4)CC2)c1 | inactive: -1.61 | inactive: -0.795 | inactive: -0.737 |
| COc1ccc(-c2nc(OC)nn2-c2ccc(OC)cc2)cc1 | inactive: -2.79 | inactive: -1.57 | inactive: -0.22 |
| CC(COc1ccccc1)NC(C)C(O)c1ccc(OC(=O)C(C)(C)C)cc1 (centres undefined) [isoxsuprine pivalate] | inactive: 0.442 | inactive: -0.0527 | inactive: 1.73 |
| Clc1ccc(CSC(Cn2ccnc2)c2ccc(Cl)cc2Cl)cc1 (centres undefined) [Sulconazole (nitrate)] |  | inactive: -0.0835 |  |
| Clc1ccc(CSC(Cn2ccnc2)c2ccc(Cl)cc2Cl)cc1 (centres undefined) | inactive: -0.453 |  | inactive: -0.183 |
| Cn1c(C#N)ccc1-c1ccc2c(c1)C(C)(C)OC(=S)N2 [tanaproget] | inactive: 0.758 | inactive: -2.11 | inactive: -0.812 |
| CCCCN(CCCC)CCC(O)c1cc2c(Cl)cc(Cl)cc2c2cc(C(F)(F)F)ccc12 (centres undefined) [Halofantrine HCl] | inactive: -0.181 | inactive: -0.547 | inactive: 0.676 |
| COc1ccc(Cl)cc1C(=O)NCCc1ccc(C(=O)O)cc1 [meglitinide] | inactive: 0.221 | inactive: -0.573 | inactive: -0.895 |
| COc1ccc2nc3n(c(=O)c2c1)CCC3 | inactive: -1.47 | inactive: 0.542 | inactive: -1.59 |
| CNC(=O)COc1cccc(Nc2ncc(F)c(Nc3ccc4c(c3)NC(=O)C(F)(F)O4)n2)c1 | inactive: -1.85 | inactive: -1.63 | inactive: 0.0434 |
| C[C@@H](c1nc(-c2ccc(C#N)cc2)cs1)[C@](O)(Cn1cncn1)c1cc(F)ccc1F [Isavuconazole] | inactive: -0.345 | inactive: -1.96 | inactive: -0.974 |
| N=C(N)NCCC[C@H](N)C(=O)NCC(=O)N[C@@H](CC(=O)O)C(=O)O | inactive: -1.45 | inactive: 0.0015 | inactive: -0.152 |
| CCCCc1cc(C(=O)OC)cc(=O)n1Cc1ccc(-c2ccccc2-c2nnn[nH]2)cc1F | inactive: -0.136 | inactive: -0.238 | inactive: 2.35 |

| SMILES | TEAD-luciferase reporter activity (compound concentration: 200 nM) | TEAD-luciferase reporter activity (compound concentration: 2 uM) | TEAD-luciferase reporter activity (compound concentration: 10 uM) |
| --- | --- | --- | --- |
| C[N+](C)(C)CCCCCC[N+](C)(C)C | inactive: 1.47 | inactive: 0.0835 | inactive: 2.43 |
| CCOc1ncc(S(=O)(=O)N2CCN(CC)CC2)cc1-c1nc(O)c2nn(CCOC)c(CC)c2n1 | inactive: -0.412 | inactive: -0.111 | inactive: 0.113 |
| Nc1nc(N)c2nc(-c3cccc(O)c3)c(-c3cccc(O)c3)nc2n1 | inactive: -0.994 | inactive: -1.07 | inactive: 0.181 |
| OC(COc1cccc2[nH]ccc12)CN1CCC(COc2ccccc2)CC1 (centres undefined) | inactive: -0.991 | inactive: 0.458 | inactive: -0.69 |
| CC1CC(OC(=O)c2ccccc2O)CC(C)(C)C1 (centres undefined) | inactive: -1.97 | inactive: 0.402 | inactive: -1.46 |
| COc1cc(C(=O)NC2CCCNC2)cc(OC)c1OC (centres undefined) | inactive: -2.12 |  | inactive: 0.843 |
| COc1cc(C(=O)NC2CCCNC2)cc(OC)c1OC (centres undefined) [troxipide] |  | inactive: 4.95 |  |
| S=P(N1CC1)(N1CC1)N1CC1 | inactive: 1.98 | inactive: -1.3 | inactive: -1.22 |
| O=C(O)/C=C/c1ccc(-c2nc3c([nH]2)c(=O)n(CC2CCCCC2)c(=O)n3CC2CCCCC2)cc1 | inactive: 2.36 |  | inactive: 3 |
| O=C(O)/C=C/c1ccc(-c2nc3c([nH]2)c(=O)n(CC2CCCCC2)c(=O)n3CC2CCCCC2)cc1 [Pharmaprojects No. 4934] |  | inactive: -0.764 |  |
| CSCC[C@@H]1NC(=O)[C@H](CC(C)C)NC(=O)[C@H]2CNC(=O)C[C@@H](NC1=O)C(=O)N[C@H](Cc1c[nH]c3ccccc13)C(=O)N[C@@H](Cc1ccccc1)C(=O)N2 | inactive: -0.877 | inactive: -0.82 | inactive: 0.326 |
| COc1ccc(OC[C@H]2CN(C)CC[C@@H]2c2ccccc2)cc1 | inactive: -0.559 | inactive: -0.0392 | inactive: -1.7 |
| CCCCc1nnc(S)n1-c1ccccc1 | inactive: 1.86 | inactive: -0.741 | active: 6.47 |
| Cc1cc(CC(C)CC(C)(C)C)n(O)c(=O)c1 (centres undefined) | inactive: 0.0967 | inactive: -0.885 | inactive: -0.952 |
| Cc1ccsc1C(=CCCN1CCC[C@@H](C(=O)O)C1)c1sccc1C [tiagabine] |  | inactive: -1.79 |  |
| Cc1ccsc1C(=CCCN1CCC[C@@H](C(=O)O)C1)c1sccc1C | inactive: -2.66 |  | inactive: 2.8 |
| CCCCCOc1cccc(NC(=O)O[C@H]2CCCC[C@@H]2N2CCCC2)c1 [trapencaine] | inactive: -0.0544 | inactive: -0.106 | inactive: 1.02 |
| CC1(C)CC1(C)C [1,1,2,2-Tetramethylcyclopropane] | inactive: 1.13 | inactive: -1.53 | inactive: -1.47 |

Reformatted bar-delimited: entries from further up
SMILES | TEAD-luciferase reporter activity (compound concentration: 200 nM) | TEAD-luciferase reporter activity (compound concentration: 2 uM) | TEAD-luciferase reporter activity (compound concentration: 10 uM)
COc1cc(C(=O)NC2CCCNC2)cc(OC)c1OC (centres undefined) | inactive: -2.12 |  | inactive: 0.843
COc1cc(C(=O)NC2CCCNC2)cc(OC)c1OC (centres undefined) [troxipide] |  | inactive: 4.95 | 
S=P(N1CC1)(N1CC1)N1CC1 | inactive: 1.98 | inactive: -1.3 | inactive: -1.22
